From publication PMC12683725
Results are given in words; binding and its absence hold for the method and conditions named. In cells and extracts the contact can be indirect. Some results given as binding are weak or reduced against the parent protein; the word gives no strength.

Chains of the proteins cited; added tags and fusions are not shown.
UniProt Q9Y572: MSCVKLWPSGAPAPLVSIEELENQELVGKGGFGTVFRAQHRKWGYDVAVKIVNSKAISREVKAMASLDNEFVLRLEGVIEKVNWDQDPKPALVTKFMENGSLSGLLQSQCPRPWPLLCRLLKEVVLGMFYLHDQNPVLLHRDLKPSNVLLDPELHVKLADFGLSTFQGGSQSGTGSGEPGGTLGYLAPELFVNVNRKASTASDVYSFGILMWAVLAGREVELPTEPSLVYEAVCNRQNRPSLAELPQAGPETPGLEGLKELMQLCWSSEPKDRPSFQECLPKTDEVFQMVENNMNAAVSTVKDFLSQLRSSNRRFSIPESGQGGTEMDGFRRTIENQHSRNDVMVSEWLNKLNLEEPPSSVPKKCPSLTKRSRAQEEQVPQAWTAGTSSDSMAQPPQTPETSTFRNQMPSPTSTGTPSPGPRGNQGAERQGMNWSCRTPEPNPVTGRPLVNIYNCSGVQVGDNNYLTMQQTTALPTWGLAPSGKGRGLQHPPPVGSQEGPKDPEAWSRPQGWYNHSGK

What was measured:
[1] = target: receptor-interacting protein kinase 3 (human (endogenous in HK-2)) (UniProt Q9Y572); assay: co-IP; lysates of control HK-2 cells (no LPS); immunoprecipitation with anti-RIP3 or anti-Nrf2 antibody on Dynabeads Protein G, 4 °C overnight; immunoblot for Nrf2 and RIP3
[2] = target: receptor-interacting protein kinase 3 (human (endogenous in HK-2)) (UniProt Q9Y572); assay: co-IP; lysates of HK-2 cells treated with LPS for 24 h (Pierce IP Lysis Buffer); immunoprecipitation with anti-RIP3 or anti-Nrf2 antibody or control IgG at 4 °C overnight on Dynabeads Protein G; immunoblot for Nrf2 and RIP3

binding [2]: binds
B1: nuclear factor erythroid 2-related factor 2 (protein, UniProt Q16236 1-605)
chain: MMDLELPPPGLPSQQDMDLIDILWRQDIDLGVSREVFDFSQRRKEYELEKQKKLEKERQEQLQKEQEKAFFAQLQLDEETGEFLPIQPAQHIQSETSGSANYSQVAHIPKSDALYFDDCMQLLAQTFPFVDDNEVSSATFQSLVPDIPGHIESPVFIATNQAQSPETSVAQVAPVDLDGMQQDIEQVWEELLSIPELQCLNIENDKLVETTMVPSPEAKLTEVDNYHFYSSIPSMEKEVGNCSPHFLNAFEDSFSSILSTEDPNQLTVNSLNSDATVNTDFGDEFYSAFIAEPSISNSMPSPATLSHSLSELLNGPIDVSDLSLCKAFNQNHPESTAEFNDSDSGISLNTSPSVASPEHSVESSSYGDTLLGLSDSEVEELDSAPGSVKQNGPKTPVHSSGDMVQPLSPSQGQSTHVHDAQCENTPEKELPVSPGHRKTPFTKDKHSSRLEAHLTRDELRAKALHIPFPVEKIINLPVVDFNEMMSKEQFNEAQLALIRDIRRRGKNKVAAQNCRKRKLENIVELEQDLDHLKDEKEKLLKEKGENDKSLHLLKKQLSTLYLEVFSMLRDEDGKPYSPSEYSLQQTRDGNVFLVPKSKKPDVKKN
binding [1]: no binding (condition: control HK-2 cells without LPS)
